Assay results as given in the supplement of paper PMC6078165.
± gives the standard deviation of the averaged measurements. The reference is the same well before dosing, and untreated signal decays as well.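 Labels refer to human fibroblasts, largely primary: uterine (C12385, HUF), lung (H6013), bone (Hs27A), adrenal (HADF), skin (WS1), plus mammary HMF and breast cancer-associated Hs343T. Cancer lines are basal-like or mesenchymal-like triple-negative breast cancer. The paper counts as hits responses shifting over 3x the replicate standard deviation. The tissue of the other fibroblasts is not given here.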

Test system: BT20
Assay: relative JC-1 red fluorescence (viability) vs pre-drug, coculture with fibroblast (fraction); higher = more viable cancer cells
Protocol: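 JC-1 labelled TNBC cells cocultured 1:1 (1,500 cells each) with CellTrace Violet stained primary or stromal fibroblasts in 384-well plates in FluoroBrite medium, treated with one of 42 anticancer drugs at 0.1, 1, 10 or 100 uM. JC-1 red fluorescence (mitochondrial integrity in cancer cells only) was read by plate reader every 8 h for 72 h. Values are normalised to each well's pre-drug value. The stock of one drug was tenfold lower, so its dose labels may be too high.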

C[C@]12CC[C@@H]3c4ccc(O)cc4C[C@@H](CCCCCCCCC[S+]([O-])CCCC(F)(F)C(F)(F)F)[C@H]3[C@@H]1CC[C@@H]2O (stereo partly drawn) [Fulvestrant]
relative JC-1 red fluorescence
Conditions | 8 h | 16 h | 24 h | 32 h | 40 h | 48 h | 56 h | 64 h | 72 h
0.1 µM, coculture fibroblast: C12385 | 0.9001 ± 0.0021 | 0.833 ± 0.018 | 0.7715 ± 0.002 | 0.713 ± 0.029 | 0.661 ± 0.024 | 0.627 ± 0.022 | 0.607 ± 0.021 | 0.584 ± 0.024 | 0.569 ± 0.024
0.1 µM, coculture fibroblast: H6013 | 0.976 ± 0.026 | 0.859 ± 0.017 | 0.784 ± 0.0011 | 0.75 ± 0.017 | 0.687 ± 0.0086 | 0.6636 ± 0.0036 | 0.6416 ± 0.0042 | 0.6125 ± 0.0025 | 0.5857 ± 0.0015
0.1 µM, coculture fibroblast: H6019 | 0.852 ± 0.011 | 0.8 ± 0.016 | 0.767 ± 0.015 | 0.712 ± 0.03 | 0.674 ± 0.033 | 0.659 ± 0.044 | 0.627 ± 0.053 | 0.606 ± 0.056 | 0.593 ± 0.054
0.1 µM, coculture fibroblast: H6076 | 0.984 ± 0.019 | 0.889 ± 0.015 | 0.8336 ± 0.0051 | 0.807 ± 0.0084 | 0.792 ± 0.023 | 0.773 ± 0.03 | 0.775 ± 0.026 | 0.765 ± 0.03 | 0.758 ± 0.03
0.1 µM, coculture fibroblast: H6231 | 0.817 ± 0.04 | 0.91 ± 0.019 | 0.804 ± 0.025 | 0.739 ± 0.033 | 0.691 ± 0.03 | 0.641 ± 0.038 | 0.61 ± 0.029 | 0.584 ± 0.032 | 0.554 ± 0.021
0.1 µM, coculture fibroblast: HADF | 0.822 ± 0.09 | 0.9313 ± 0.0054 | 0.849 ± 0.035 | 0.832 ± 0.018 | 0.791 ± 0.024 | 0.74 ± 0.02 | 0.708 ± 0.041 | 0.68 ± 0.041 | 0.644 ± 0.046
0.1 µM, coculture fibroblast: HCFa | 0.959 ± 0.043 | 0.88 ± 0.089 | 0.841 ± 0.12 | 0.8 ± 0.14 | 0.759 ± 0.16 | 0.723 ± 0.17 | 0.697 ± 0.18 | 0.677 ± 0.2 | 0.631 ± 0.2
0.1 µM, coculture fibroblast: HCPF | 0.748 ± 0.05 | 0.922 ± 0.04 | 0.836 ± 0.018 | 0.79 ± 0.012 | 0.751 ± 0.022 | 0.697 ± 0.008 | 0.6501 ± 0.0062 | 0.626 ± 0.014 | 0.579 ± 0.007
0.1 µM, coculture fibroblast: HHSteC | 0.941 ± 0.01 | 0.8505 ± 0.0022 | 0.824 ± 0.011 | 0.749 ± 0.019 | 0.688 ± 0.021 | 0.653 ± 0.025 | 0.614 ± 0.013 | 0.586 ± 0.012 | 0.544 ± 0.014
0.1 µM, coculture fibroblast: HMF | 0.886 ± 0.039 | 0.882 ± 0.011 | 0.7706 ± 0.005 | 0.711 ± 0.0086 | 0.67 ± 0.013 | 0.629 ± 0.021 | 0.599 ± 0.014 | 0.57 ± 0.011 | 0.544 ± 0.006
0.1 µM, coculture fibroblast: HPFa | 0.9453 ± 0.001 | 0.863 ± 0.012 | 0.859 ± 0.032 | 0.77 ± 0.036 | 0.729 ± 0.045 | 0.67 ± 0.047 | 0.638 ± 0.041 | 0.597 ± 0.046 | 0.536 ± 0.047
0.1 µM, coculture fibroblast: HUF | 0.9104 ± 0.0075 | 0.8328 ± 0.0056 | 0.784 ± 0.017 | 0.696 ± 0.02 | 0.642 ± 0.0084 | 0.603 ± 0.0074 | 0.573 ± 0.012 | 0.55 ± 0.016 | 0.534 ± 0.018
0.1 µM, coculture fibroblast: Hs5 | 0.737 ± 0.06 | 0.9146 ± 0.0085 | 0.824 ± 0.016 | 0.7717 ± 0.0052 | 0.7273 ± 0.0013 | 0.6877 ± 0.0039 | 0.651 ± 0.0075 | 0.607 ± 0.011 | 0.563 ± 0.0081
0.1 µM, coculture fibroblast: Hs27A | 0.8441 ± 0.0076 | 0.835 ± 0.098 | 0.849 ± 0.21 | 0.858 ± 0.19 | 0.909 ± 0.086 | 0.903 ± 0.098 | 0.917 ± 0.081 | 0.978 ± 0.021 | 0.934 ± 0.0097
0.1 µM, coculture fibroblast: Hs343T | 0.835 ± 0.18 | 0.88 ± 0.054 | 0.775 ± 0.022 | 0.7197 ± 0.0071 | 0.654 ± 0.0079 | 0.615 ± 0.018 | 0.562 ± 0.04 | 0.532 ± 0.046 | 0.503 ± 0.049
0.1 µM, coculture fibroblast: WS1 | 0.8743 ± 0.0028 | 0.8015 ± 0.0019 | 0.7361 ± 0.0018 | 0.661 ± 0.017 | 0.602 ± 0.024 | 0.573 ± 0.032 | 0.537 ± 0.035 | 0.516 ± 0.043 | 0.503 ± 0.052
1 µM, coculture fibroblast: C12385 | 0.851 ± 0.015 | 0.79 ± 0.03 | 0.7667 ± 0.0012 | 0.71 ± 0.0092 | 0.664 ± 0.0094 | 0.648 ± 0.021 | 0.631 ± 0.029 | 0.613 ± 0.035 | 0.594 ± 0.041
1 µM, coculture fibroblast: H6013 | 0.924 ± 0.018 | 0.904 ± 0.062 | 0.893 ± 0.098 | 0.863 ± 0.11 | 0.853 ± 0.13 | 0.849 ± 0.13 | 0.853 ± 0.12 | 0.838 ± 0.13 | 0.819 ± 0.12
1 µM, coculture fibroblast: H6019 | 0.841 ± 0.013 | 0.782 ± 0.018 | 0.789 ± 0.044 | 0.743 ± 0.068 | 0.704 ± 0.082 | 0.692 ± 0.1 | 0.657 ± 0.1 | 0.635 ± 0.11 | 0.612 ± 0.12
1 µM, coculture fibroblast: H6076 | 0.909 ± 0.043 | 0.886 ± 0.033 | 0.843 ± 0.011 | 0.825 ± 0.016 | 0.8233 ± 0.0072 | 0.791 ± 0.012 | 0.801 ± 0.027 | 0.8 ± 0.031 | 0.791 ± 0.045
1 µM, coculture fibroblast: H6231 | 0.968 ± 0.017 | 0.8643 ± 0.0021 | 0.799 ± 0.013 | 0.745 ± 0.02 | 0.711 ± 0.052 | 0.67 ± 0.057 | 0.658 ± 0.078 | 0.63 ± 0.087 | 0.613 ± 0.083
1 µM, coculture fibroblast: HADF | 0.95679 ± 0.00033 | 0.906 ± 0.039 | 0.85 ± 0.038 | 0.817 ± 0.046 | 0.787 ± 0.055 | 0.751 ± 0.048 | 0.732 ± 0.048 | 0.712 ± 0.051 | 0.678 ± 0.045
1 µM, coculture fibroblast: HCFa | 0.944 ± 0.017 | 0.912 ± 0.053 | 0.886 ± 0.096 | 0.856 ± 0.11 | 0.837 ± 0.15 | 0.826 ± 0.16 | 0.809 ± 0.19 | 0.794 ± 0.21 | 0.76 ± 0.22
1 µM, coculture fibroblast: HCPF | 0.884 ± 0.091 | 0.917 ± 0.033 | 0.839 ± 0.043 | 0.792 ± 0.038 | 0.754 ± 0.044 | 0.712 ± 0.046 | 0.693 ± 0.04 | 0.66 ± 0.026 | 0.631 ± 0.022
1 µM, coculture fibroblast: HHSteC | 0.9029 ± 0.0046 | 0.858 ± 0.0093 | 0.8337 ± 0.0028 | 0.7669 ± 0.0027 | 0.7116 ± 0.0019 | 0.6913 ± 0.0034 | 0.6622 ± 0.0036 | 0.6461 ± 0.0019 | 0.61399 ± 0.00038
1 µM, coculture fibroblast: HMF | 0.9634 ± 0.0076 | 0.86 ± 0.011 | 0.774 ± 0.0093 | 0.7298 ± 0.003 | 0.6954 ± 0.0047 | 0.645 ± 0.018 | 0.621 ± 0.026 | 0.607 ± 0.024 | 0.577 ± 0.021
1 µM, coculture fibroblast: HPFa | 0.8919 ± 0.0038 | 0.878 ± 0.023 | 0.928 ± 0.053 | 0.872 ± 0.049 | 0.856 ± 0.071 | 0.814 ± 0.077 | 0.782 ± 0.088 | 0.737 ± 0.091 | 0.681 ± 0.091
1 µM, coculture fibroblast: HUF | 0.9274 ± 0.0019 | 0.835 ± 0.011 | 0.799 ± 0.019 | 0.723 ± 0.018 | 0.677 ± 0.018 | 0.645 ± 0.019 | 0.63 ± 0.017 | 0.611 ± 0.015 | 0.597 ± 0.017
1 µM, coculture fibroblast: Hs5 | 0.894 ± 0.068 | 0.851 ± 0.033 | 0.8184 ± 0.0018 | 0.7807 ± 0.0029 | 0.769 ± 0.01 | 0.749 ± 0.03 | 0.734 ± 0.053 | 0.724 ± 0.063 | 0.69 ± 0.062
1 µM, coculture fibroblast: Hs27A | 0.832 ± 0.033 | 0.838 ± 0.068 | 0.938 ± 0.013 | 0.941 ± 0.041 | 0.915 ± 0.046 | 0.899 ± 0.055 | 0.884 ± 0.067 | 0.858 ± 0.07 | 0.812 ± 0.075
1 µM, coculture fibroblast: Hs343T | 0.85 ± 0.2 | 0.8937 ± 0.0032 | 0.823 ± 0.01 | 0.7659 ± 0.005 | 0.7312 ± 0.0058 | 0.6908 ± 0.0044 | 0.6632 ± 0.0023 | 0.643 ± 0.012 | 0.618 ± 0.018
1 µM, coculture fibroblast: WS1 | 0.851 ± 0.005 | 0.7724 ± 0.0036 | 0.745 ± 0.011 | 0.677 ± 0.0085 | 0.62 ± 0.011 | 0.598 ± 0.018 | 0.572 ± 0.011 | 0.549 ± 0.018 | 0.536 ± 0.019
